From publication PMC6306559, “Diazepam is not a direct allosteric modulator of α1‐adrenoceptors, but modulates receptor signaling by inhibiting phosphodiesterase‐4” (Pharmacology Research & Perspectives, 2018)

System: α1A‐AR A4
Details: 500 μmol/L ligand, 5 μmol/L receptor in DDM, with and without 10 μmol/L prazosin; controls DDM alone and enNTS1

How did the “STD NMR signals, interpretation” value turn out when `CN1C(=O)CN=C(c2ccccc2)c2cc(Cl)ccc21` [diazepam] was run?
The value was “nonspecific interactions with detergent micelles”.
